Experimental data from US20260335468A1, “MOLECULAR RADIOAFTERGLOW PROBES FOR CANCER RADIODYNAMIC THERANOSTICS” (NANYANG TECHNOLOGICAL UNIVERSITY, priority 2023, published 2026).

Test: In vivo limit of detection of subcutaneously injected IDPASu (radio afterglow)
Design: species or system mouse (BALB/c nude)
Conditions: y = a + b*x, radio afterglow intensity versus IDPASu concentration
Description: To test the LOD of IDPASu for in vivo RAI, 20 μl of the mixture solution of IDPASu at different concentrations (100.0, 50.0, 20.0, 10.0, 5.0, 1.0, 0.5 and 0 μM) and solubilizing agent (2-carboxyethyl)-o-cyclodextrin sodium salt (β-CD) at 100 μM was subcutaneously injected into the left flank of BALB/c nude mice (six weeks old). After 30 min, the left flank of mice were irradiated with X-rays at 5 mGy (250 μGy s^−1 for 20 s) as the other areas were protected by a 3.4-mm-thick lead shield with a notch under the X-ray irradiation. Radio afterglow signals were recorded. The detection limit was calculated using this equation: LOD=3σ/k, where a represents the s.d. of blank and k implies the slope of the radio afterglow intensities.

With `COC(=C1C2CC3CC(C2)CC1C3)c1cc(O)c(I)cc1/C=C/C1=CC(=C(C#N)C#N)c2ccccc2S1` [IDPASu] the “linear regression of FIG. 13b: Slope” value was 18319.0083 ± 307.5.
